Test results taken from PubChem BioAssay AID1347076 (National Center for Advancing Translational Sciences (NCATS), 2019).
The whole screen tested about 400,000 compounds, of which about 13,000 (3.2%) were called active. The inconclusive results got no clear call from the source; some entries with a clear call stand among them for comparison. Calls come from the whole dose curve; as a rule, active = well fitted cell-killing curve with a large enough effect; inconclusive = small, poorly fitted or top-dose-only effect, or effect the other way; inactive = flat fitted curve, though single readings scatter. Potencies of inconclusive entries are doubtful fits and often do not repeat.

assay: qHTS assay for MDR1-selective chemotherapeutics: Primary screen using the drug-selected MDR subline cells KB-V1; conditions: KB-V1 MDR cells viability, CellTiter-Glo, 72 h; activity change, negative = cytotoxicity: at 46.1 µM (top of the series); note: nearly all actives have a fitted effect of over 60% in size
Procedure, shortened: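 KB-V1 MDR subline cells in DMEM (phenol-red free, 10% FBS) exposed to compounds in qHTS concentration series for 72 h at 37 degrees C. Viability read by CellTiter-Glo luminescence; concentration-effect curves fitted after normalization and correction.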
% is set by controls: 0 for no effect and ±100 for the full control effect; potency is the fitted concentration of half-maximal effect.

SMILES | Potency | activity change, negative = cytotoxicity
CC(C)C(N)c1csc(NC(=O)Nc2cccc(C(F)(F)F)c2)n1 (stereo not drawn) | inconclusive: 29.1 µM [cytotoxic, single point] | 
O=C(N/N=C/c1cccnc1)c1cc(-c2ccc(Cl)cc2)nc2ccccc12 | inconclusive: 25.9 µM [cytotoxic, single point] | 
Cc1noc2ncnc(Sc3c(Cl)cccc3Cl)c12 | inconclusive: 23.1 µM [cytotoxic, single point] | 
CN(Cc1nc2ccccc2c(=O)[nH]1)C(=O)COc1ccccc1Cc1ccccc1 |  | inactive: 0%
Cc1ccc(NS(=O)(=O)c2ccc(C(=O)NCC(c3ccco3)N3CCCCC3)cc2)cc1 (stereo not drawn) | inconclusive: 8.2 µM [cytotoxic, partial curve] | 
CCOc1ccc(Nc2ccc(S(=O)(=O)N3CCN(C)CC3)cc2[N+](=O)[O-])cc1OCC |  | inactive: 16.5%
N#Cc1ccsc1NC(=O)CSc1nnc(-c2ccccc2)o1 | inconclusive: 23.1 µM [rising, partial curve] | 
Cc1ccc2c(Cl)c(C)c(N3CCCC3)nc2n1 | inconclusive: 29.1 µM [cytotoxic, single point] | 
CC(=O)c1c(C)oc2ccc(NS(=O)(=O)c3ccccc3)cc12 | inconclusive: 1.84 µM [cytotoxic, full curve] | 
Cc1ccc(/C=N/NC(=O)Cc2c[nH]c3ccccc23)c(C)c1 | inconclusive: 29.1 µM [cytotoxic, single point] | 
Cc1cccc(Cn2c(NCCO)nc3c2c(=O)n(C)c(=O)n3C)c1 | active: 4.11 µM | 
CCN(CC)C(=O)CSc1nc(N)c(C#N)c(-c2cccs2)c1C#N | inconclusive: 16.4 µM [cytotoxic, single point] | 
CCCc1nn2c(=O)cc(CSCC(=O)Nc3nnc(C(C)C)s3)nc2s1 |  | inactive: 23.5%
Cn1nc([N+](=O)[O-])c(C(C#N)c2ccccn2)c(Cl)c1=O (stereo not drawn) |  | inactive: -26.4%
CCN(CC(=O)Nc1c(C(=O)OC)[nH]c2ccccc12)c1ccc2c(c1)OCO2 | inconclusive: 9.2 µM [cytotoxic, partial curve, poor fit] | 
COc1cccc(CC(=O)OCC(=O)N(C)CC(=O)Nc2ccc(F)cc2)c1 |  | inactive: -15.9%
c1ccc(N2CCN(Cc3cn4ccccc4n3)CC2)cc1 | inconclusive: 29.1 µM [cytotoxic, single point] | 
C=CCN(c1ccccc1)S(=O)(=O)c1cccc(C(=O)N2CC(C)CC(C)C2)c1 (stereo not drawn) | active: 7.31 µM | 
COC(=O)c1cc2ccccc2c(-c2c(OC)c(C(=O)OC)cc3ccccc23)c1OC | inconclusive: 23.1 µM [cytotoxic, single point] | 
COc1ccc(CCNC(=O)c2cc3sccc3n2C)cc1OC | active: 20.6 µM | 
COc1ccc(N2CCN(CCCNC(=O)CCC(=O)N3CCOc4ccc(Cl)cc43)CC2)cc1 |  | inactive: -26.3%
COc1ccccc1N(C)S(=O)(=O)c1ccc(C)c(C(=O)NC(C)c2ccccn2)c1 (stereo not drawn) | active: 9.2 µM | 
CCN(CCn1cccn1)C(=O)CC1C(=O)NCCN1Cc1cc(OC)cc(OC)c1 (stereo not drawn) | inconclusive: 29.1 µM [rising, partial curve, poor fit] | 

SMILES | Potency | activity change, negative = cytotoxicity
Cn1c(COc2ccccc2)nnc1SCc1nc2ccccc2[nH]1 | inconclusive: 32.6 µM [cytotoxic, partial curve, poor fit] | 
COc1ccc(-c2nc(C)c(CCNC(=O)c3cccs3)s2)cc1 | active: 8.2 µM | 
Cc1ccc(N(C(=O)Cc2cccs2)C(C(=O)NC2CCCCC2)c2ccccn2)cc1C (stereo not drawn) | inconclusive: 29.1 µM [cytotoxic, single point] | 
Cc1ccc(N(Cc2ccccc2)C(=O)c2cc(S(=O)(=O)N3CCOCC3)ccc2Cl)cc1 | inconclusive: 29.1 µM [cytotoxic, single point] | 
CCN1C(=O)C(CC(=O)NCCc2ccccc2)N(NC(=O)c2ccc(Br)cc2)C1=S (stereo not drawn) | inconclusive: 20.6 µM [cytotoxic, single point] | 
O=C(Nc1ccc(F)cc1)c1ccc(S(=O)(=O)NCC2CCCO2)cc1 (stereo not drawn) | active: 13 µM | 
Cc1ccccc1-c1nnc(SCC(=O)N2CCCc3ccccc32)o1 |  | inactive: -12.5%
CC1Cc2cc(S(=O)(=O)CCC(=O)N3CCN(c4ccccc4)CC3)ccc2N1C(=O)C1CC1 (stereo not drawn) | inconclusive: 29.1 µM [cytotoxic, single point] | 
NS(=O)(=O)c1ccc(Nc2ncccc2[N+](=O)[O-])cc1 | inconclusive: 35.5 µM [rising, single point] | 
CC1(C(=O)NC2CCCCCC2)CCN1C(=O)C1(c2ccccc2)CC1 (stereo not drawn) |  | inactive: -0.477%
CCOc1ccc(OCc2ccc(C(=O)Nc3ccc(Cl)cn3)o2)cc1 | inconclusive: 18.4 µM [cytotoxic, single point] | 
CCN(CC)S(=O)(=O)c1cccc(C(=O)Nc2ccccc2)c1 | inconclusive: 10.3 µM [cytotoxic, partial curve] | 
C=CCNc1nc(Nc2cc(Cl)ccc2OC)nc(OC)n1 | inconclusive: 18.4 µM [rising, single point] | 
CCOc1ccc(NC(=O)c2ccc3c(c2)c(C)c(C)n3Cc2ccc(F)cc2)cc1 | inconclusive: 6.51 µM [cytotoxic, full curve] | 
CCc1nc2c(OCc3ccc(F)c(F)c3)cccn2c1N(C)C(=O)C1CC1 |  | inactive: 2.86%
O=C(NN1C(=O)NC2(CCCCC2)C1=O)c1ccc(-c2ccc(Cl)cc2)o1 | inconclusive: 32.6 µM [cytotoxic, partial curve, poor fit] | 
Cc1ccccc1NC(=O)Nc1nnc([C@@H]2C[C@H](O)[C@@H](CO)O2)s1 |  | inactive: -3.56%
CCC(C)(C)NC(=O)C1CCN(c2nc(C)cc(C)n2)CC1 | inconclusive: 29.1 µM [cytotoxic, single point] | 
Cc1ccc(-c2csc3ncnc(SCC(N)=O)c23)cc1 | inconclusive: 20.6 µM [cytotoxic, single point] | 
CCC1=NN2C(=N)/C(=C\c3ccc(SCc4ccco4)o3)C(=O)N=C2S1 | inconclusive: 29.1 µM [rising, single point] | 
O=C(O)C1CCC(Cn2c(SCc3cc(=O)n4ccccc4n3)nc3ccsc3c2=O)CC1 (stereo not drawn) |  | inactive: -0.0436%
CCOC(=O)N1CCN(c2c(Nc3ccc4c(c3)OCCO4)c(=O)c2=O)CC1 | inconclusive: 29.1 µM [rising, single point] | 
COc1ccc(OC(C)C(=O)N(C)Cc2nc(-c3ccc(C)cc3)no2)cc1 (stereo not drawn) | inconclusive: 14.6 µM [cytotoxic, partial curve] | 

A section taken from the entries so far:
SMILES | Potency | activity change, negative = cytotoxicity
CCC(C)(C)NC(=O)C1CCN(c2nc(C)cc(C)n2)CC1 | inconclusive: 29.1 µM [cytotoxic, single point] | 
Cc1ccc(-c2csc3ncnc(SCC(N)=O)c23)cc1 | inconclusive: 20.6 µM [cytotoxic, single point] | 

Taken from above.
Under Potency, Cn1c(COc2ccccc2)nnc1SCc1nc2ccccc2[nH]1 has the entry inconclusive: 32.6 µM [cytotoxic, partial curve, poor fit]
Under activity change, negative = cytotoxicity, CCc1nc2c(OCc3ccc(F)c(F)c3)cccn2c1N(C)C(=O)C1CC1 has the entry inactive: 2.86%
Under Potency, Cc1ccc(-c2csc3ncnc(SCC(N)=O)c23)cc1 has the entry inconclusive: 20.6 µM [cytotoxic, single point]

(list continues)

SMILES | Potency | activity change, negative = cytotoxicity
CCOc1cc(C(=S)N2CCC(O)CC2)ccc1OS(=O)(=O)c1ccc(Br)cc1 | inconclusive: 16.4 µM [cytotoxic, partial curve, poor fit] | 
O=C(c1cn(-c2ccccc2)nc1-c1ccccc1)N1CCN(c2ccccn2)CC1 | active: 20.6 µM | 
COc1ccccc1-c1cc(C(F)(F)F)nc(S(=O)(=O)CCCC(=O)NC(C)C)n1 | inconclusive: 20.6 µM [cytotoxic, single point] | 
CCOc1ncccc1C(=O)OCC(=O)c1c[nH]c2ccccc12 | inconclusive: 32.6 µM [cytotoxic, partial curve, poor fit] | 
Cc1ccc(C)c(N2CCN(C(=O)c3csc4ccccc34)CC2)c1 | inconclusive: 20.6 µM [cytotoxic, partial curve, poor fit] | 
N#CCCNc1c(Cl)cc(Cl)cc1C(=O)O | inconclusive: 14.6 µM [rising, single point] | 
CN(C)c1ccc(NC(=O)Cc2ccccc2)c2ccccc12 | inconclusive: 20.6 µM [cytotoxic, single point] | 
O=C(CSc1nnnn1-c1ccc2c(c1)OCO2)NCc1ccccc1 | active: 11.6 µM | 
COC(=O)N1CCCc2cc(C)ccc21 | inconclusive: 18.4 µM [rising, single point] | 
COc1ccc(CC(N)c2csc(NC(=O)Nc3ccccc3Cc3ccccc3)n2)cc1 (stereo not drawn) | inconclusive: 29.1 µM [cytotoxic, single point] | 
Cc1ccc(N2CC(C(=O)OCC(=O)Nc3ccccc3C)CC2=O)cc1 (stereo not drawn) | inconclusive: 29.1 µM [rising, single point] | 
CCCCN(C)CCNC(=O)CCNC(=O)Cn1ccc2ccccc2c1=O | inconclusive: 29.1 µM [rising, single point] | 
CCc1ccccc1NC(=O)CSc1nc2n[nH]c(C)c2c(=N)n1-c1cccc(OC)c1 | active: 8.2 µM | 
O=C(O)COc1cnc2ccccc2n1 | inconclusive: 18.4 µM [rising, single point] | 
COc1ccc(C(O)c2nc(-c3ccncc3)cs2)cc1 (stereo not drawn) |  | inactive: -23.7%
CCOc1ccc(/C(O)=C2\C(=O)C(=O)N(c3cc(C)on3)C2c2ccccc2OC)cc1 (stereo not drawn) | inconclusive: 29.1 µM [cytotoxic, single point] | 
COc1ccc(NC(=O)CN(C)C(=O)c2cc(-c3ccccc3)nc3ccccc23)cc1 | inconclusive: 5.8 µM [cytotoxic, partial curve, poor fit] | 
O=C(c1cc(COc2ccc(F)cc2F)on1)N1CCCC(c2ccccc2)C1 (stereo not drawn) | inconclusive: 20.6 µM [cytotoxic, partial curve, poor fit] | 
Cc1cccc(CNc2ncnc3ccc(-c4ccoc4)cc23)c1 |  | inactive: -17.2%
Cc1ccc(NC(=O)CSc2nc3c([nH]c4ccccc43)c(=O)n2C)cc1 | inconclusive: 23.1 µM [cytotoxic, single point] | 
CCn1ccc2cc(S(=O)(=O)N3CCCN(C(=O)Nc4ccc(C)cc4)CC3)ccc21 |  | inactive: -26.2%
CC(C)(C)S(=O)N1Cc2cc(C(=O)N3CCc4ccccc4C3)nc(-c3cccc(-c4cccnc4)c3)c2[C@@H]1CCO (stereo partly drawn) |  | inactive: -5.61%
